Among the data in publication PMC12137173 are binding values, retold here.

Chains of the proteins cited; added tags and fusions are not shown.
UniProt P25694: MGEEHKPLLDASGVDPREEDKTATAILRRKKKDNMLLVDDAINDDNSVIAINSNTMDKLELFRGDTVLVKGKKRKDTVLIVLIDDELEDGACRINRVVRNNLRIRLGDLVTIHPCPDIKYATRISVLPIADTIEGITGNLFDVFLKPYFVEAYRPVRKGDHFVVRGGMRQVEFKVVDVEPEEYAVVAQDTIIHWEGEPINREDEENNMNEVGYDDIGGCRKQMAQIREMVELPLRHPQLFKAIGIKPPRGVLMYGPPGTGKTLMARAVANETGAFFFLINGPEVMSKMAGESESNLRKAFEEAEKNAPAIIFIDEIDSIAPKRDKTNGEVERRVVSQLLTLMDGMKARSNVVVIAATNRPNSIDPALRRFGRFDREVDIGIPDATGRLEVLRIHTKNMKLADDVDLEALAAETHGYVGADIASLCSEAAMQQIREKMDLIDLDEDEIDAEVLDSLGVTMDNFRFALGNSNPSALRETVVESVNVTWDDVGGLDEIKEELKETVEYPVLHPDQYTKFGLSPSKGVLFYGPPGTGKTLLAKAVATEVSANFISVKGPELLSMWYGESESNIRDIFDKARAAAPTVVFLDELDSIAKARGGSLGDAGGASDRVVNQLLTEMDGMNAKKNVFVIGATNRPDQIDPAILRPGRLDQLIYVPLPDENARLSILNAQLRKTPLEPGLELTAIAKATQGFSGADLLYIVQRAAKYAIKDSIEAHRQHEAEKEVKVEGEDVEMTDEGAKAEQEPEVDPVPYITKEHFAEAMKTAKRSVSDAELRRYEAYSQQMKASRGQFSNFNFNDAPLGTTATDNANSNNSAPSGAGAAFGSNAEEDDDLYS

B1: Succinate dehydrogenase (Sdh2) (protein, UniProt P21801 21-266)
chain: TATTAAATHTPRLKTFKVYRWNPDEPSAKPHLQSYQVDLNDCGPMVLDALLKIKDEQDSTLTFRRSCREGICGSCAMNIGGRNTLACICKIDQNESKQLKIYPLPHMFIVKDLVPDLTNFYQQYKSIQPYLQRSSFPKDGTEVLQSIEDRKKLDGLYECILCACCSTSCPSYWWNQEQYLGPAVLMQAYRWLIDSRDQATKTRKAMLNNSMSLYRCHTIMNCTRTCPKGLNPGLAIAEIKKSLAFA
B2: Phosphoenolpyruvate carboxykinase (Pck1) (protein, UniProt P10963 1-549)
chain: MSPSKMNATVGSTSEVEQKIRQELALSDEVTTIRRNAPAAVLYEDGLKENKTVISSSGALIAYSGVKTGRSPKDKRIVEEPTSKDEIWWGPVNKPCSERTWSINRERAADYLRTRDHIYIVDAFAGWDPKYRIKVRVVCARAYHALFMTNMLIRPTEEELAHFGEPDFTVWNAGQFPANLHTQDMSSKSTIEINFKAMEMIILGTEYAGEMKKGIFTVMFYLMPVHHNVLTLHSSANQGIQNGDVTLFFGLSGTGKTTLSADPHRLLIGDDEHCWSDHGVFNIEGGCYAKCINLSAEKEPEIFDAIKFGSVLENVIYDEKSHVVDYDDSSITENTRCAYPIDYIPSAKIPCLADSHPKNIILLTCDASGVLPPVSKLTPEQVMYHFISGYTSKMAGTEQGVTEPEPTFSSCFGQPFLALHPIRYATMLATKMSQHKANAYLINTGWTGSSYVSGGKRCPLKYTRAILDSIHDGSLANETYETLPIFNLQVPTKVNGVPAELLNPAKNWSQGESKYRGAVTNLANLFVQNFKIYQDRATPDVLAAGPQFE
B3: citrate synthase (Cit1) (protein, UniProt P00890 38-479)
chain: SSASEQTLKERFAEIIPAKAEEIKKFKKEHGKTVIGEVLLEQAYGGMRGIKGLVWEGSVLDPEEGIRFRGRTIPEIQRELPKAEGSTEPLPEALFWLLLTGEIPTDAQVKALSADLAARSEIPEHVIQLLDSLPKDLHPMAQFSIAVTALESESKFAKAYAQGVSKKEYWSYTFEDSLDLLGKLPVIASKIYRNVFKDGKITSTDPNADYGKNLAQLLGYENKDFIDLMRLYLTIHSDHEGGNVSAHTTHLVGSALSSPYLSLAAGLNGLAGPLHGRANQEVLEWLFKLREEVKGDYSKETIEKYLWDTLNAGRVVPGYGHAVLRKTDPRYTAQREFALKHFPDYELFKLVSTIYEVAPGVLTKHGKTKNPWPNVDSHSGVLLQYYGLTEASFYTVLFGVARAIGVLPQLIIDRAVGAPIERPKSFSTEKYKELVKKIESKN
B4: Ubx4 (protein, UniProt P54730 1-416)
chain: MPMVTVKYNFQLFKCKVSLNSTLNDVLHQSIQFFQLHTSSNDWSLIHLDKPVPLDLPWRLLNLPTGVNLELSKSSNFPVANKTNREDIPFNTIKIRFQIPGRDSVVKEMPSDQPIAPILRQMSGAAGDDFKIQVFSKIIEFKTIKDENLTLENLGIQEPSSVRLIFNNTSHSEGISANSAIHPKQTPPTMTNPETVASLPPHELHKPSVFLPSDEPLAVIKDQIEDEEDYELTVEQAKKYQKMLSSKAGTLGGPILTKRLREQSANNLPKKNKAISECLLRVKFPDRSHIQIAFKPNEDMRTVYNVVSQFLIDENMPFTLNQSHPFKPLAKDDKKLLDDLEFGSKTMLLFETNSNSNGPLIKAHLLEDAQKITHETRTTPSVNTINKSNPQGPSDNATSIKKTLNRVPKWMKLSKK
B5: Ubx3 (protein, UniProt Q12229 1-455)
chain: MDIFRHTFGNNDDSFIRIPGAFREEPPADLNGRTEDQNSNTNEPTQSRDGRLKSILHFLFQAPLIVLYYLLNFIVRSSRLLKPLLRLHGFYQRKHNRLLDHSSQLHRLLENLENEAQAVTCSEGNGNNDDGSNTDSTSNNESSGVQFSFGSLYNPENGTFSKSIMQNSYTELLDACSEQVKFGVIYLHDPLLDNHMDYVNKILCSEAFVNMIRKYQVLLWYGDVTTSEGLQVSNALKIRQYPLLGIISLKAEKKIELIARVEGSISNYKAQDLEAIFSKNYSRLIQLRQQRQNIEMQRLIRQQQDSRYQDSLRRDQQRESERLEQTQREQMEREHQRIENQWLLWRKSQLKPEPSSDKDASKVAIRLENGQRLVRKFDASLPTEEIYAFVELQLHDMLNSENDTLPVYQPANYQHQYSFKLITPVPRRELDLSTKISDVSGIYPSGNIVMERLDE

These are yes or no findings as the source states them, for the method shown. In cells and extracts the contact can be indirect. Here binding means that the protein was enriched with, or labelled near, the bait; the list need not be complete.

This assay addresses Cdc48 (WT), C-terminally tagged with FLAG and HIS-tag (S. cerevisiae) (UniProt P25694). Description: affinity purification with mass spectrometry; FLAG-tagged Cdc48 (WT or C115S) co-immunoprecipitated on magnetic beads from yeast lysate (Tris HCl pH 7.5 with protease inhibitors, Triton; diluted 1:1 with 50 mM Tris-HCl pH 7.5, 200 mM NaAc, 10 % glycerol), overnight at 4 °C; cells grown 24 h and 48 h; LC-MS/MS with label-free quantification; PTM search of the same data by PROMISE.
B1: the binding result is reported as “binds”.

In the case of B2, the binding entry is “binds”.

Regarding B3, the binding entry is listed as “binds”.

For B4, the binding entry is “binds”.

Turning to B5, the binding entry was “binds”.
